PubChem BioAssay AID1224826 | NIAID, 2016
The deposit covers about 17,000 reagents; this is a part drawn at random. About 1,110 of them (6.6%) were called active. 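Active means lowered or raised reporter signal; replicate intensities are raw and not normalised per plate.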 A number with no mark means an inactive call. The numbers tell different reagents against one gene apart. No sequences are given here.

Aim: 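Regulators of Tlr4 signalling leading to Tnf-alpha expression in macrophages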 (primary screen)
System: RAW264.7 G9 macrophages from mouse bearing reporters for p65 (GFP) and the Tnf promoter (mCherry)
Knock-down reagent: siRNA pool against mouse genes, 100 nM
Duration: 16 h of LPS stimulation, after 2 days of siRNA transfection
Challenge: bacterial lipopolysaccharide (Salmonella minnesota R595), 10 ng/ml
Measurement: 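Nuclear mCherry signal of the Tnf promoter reporter measured by imaging after background removal, scaled to each plate median and turned into robust z-scores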
Reading the numbers: Tnf reporter robust z-score: higher = stronger Tnf promoter reporter signal after LPS; Tnf reporter intensity: higher = stronger Tnf promoter reporter signal
Rule for the call: 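Called active when robust z-score is at most -1.3, matching the median of the Tlr4 knock-down control, or over 3; control wells and wells with under 50 cells never active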
Meaning of the calls: active = Tnf reporter clearly lowered or raised; inactive = no clear change in Tnf reporter

Target gene	pool no.	Tnf reporter robust z-score	fewer than 50 cells in well	Tnf reporter intensity, replicate 1	Tnf reporter intensity, replicate 2
Fam171b	1	-1.4 (active)	enough cells in well	109	76.1
Coq7	1	1.68	enough cells in well	292	273
Lair1	1	-0.3	enough cells in well	200	147
Dnase1	1	1.86	enough cells in well	322	391
Eef2	1	-0.94	enough cells in well	157	156
4930412C18Rik	1	0.03	enough cells in well	167	158
Gnl2	1	0.13	enough cells in well	172	266
Tnnt3	1		fewer than 50 cells per well; well left out of calls	0	42.1
Nat8f4	1		fewer than 50 cells per well; well left out of calls	160	32.3
Or8k3b	1	0.06	enough cells in well	179	164
Prkab1	1	-1.44 (active)	enough cells in well	124	102
Irebf1 (retired record)	1	0.63	enough cells in well	245	151
Ppp2cb	1	0.42	enough cells in well	242	166
Vmn1r210	1	-0.06	enough cells in well	118	86.7
Gzmb	1	0.43	enough cells in well	309	255
Gpsm3	1	0.24	enough cells in well	234	199
Abcf3	1	1.29	enough cells in well	297	268
Cwc25	1	-0.88	enough cells in well	169	58.5
Foxp3	1	0.16	enough cells in well	324	199
Kif12	1	-0.27	enough cells in well	219	135
Birc5	1		fewer than 50 cells per well; well left out of calls	86.3	134
Ces4a	1	-0.28	enough cells in well	174	202
Or4b1d	1	2.88	enough cells in well	356	237
Grap	1	-1.17	enough cells in well	179	121
Il12b	1	-0.6	enough cells in well	192	148
Bsx	1		fewer than 50 cells per well; well left out of calls	4.81	312
Or13a26	1	1.49	enough cells in well	209	97.9
Nup93	1	-0.83	enough cells in well	158	90.1
Sash1	1	0.36	enough cells in well	288	76.1
Nup107	1	-1.31 (active)	enough cells in well	112	36.9
Tsc1	1	1.21	enough cells in well	362	278
Npm3	1	-0.26	enough cells in well	183	128
Ctsr	1	-0.64	enough cells in well	149	133
Zfp28	1	3.03 (active)	enough cells in well	67.7	263
Zfp28	2		fewer than 50 cells per well; well left out of calls	159	46.5
Fcf1	1	-1	enough cells in well	191	42.5
Adamts15	1	-0.89	enough cells in well	129	106
Man2a2	1	3.31 (active)	enough cells in well	313	384
Plac1	1		fewer than 50 cells per well; well left out of calls	79.8	87.8
Med18	1	1.91	enough cells in well	400	119
